Laboratory results from patent US20210030883A1.
These are yes or no findings as the source states them, for the method shown. Binding seen in cells or lysates may run through a third protein. Some binding calls cover weakened binding; strength is not graded here.

The chains behind the UniProt entries cited, without tags or fusion partners. Residues count along the entry.
UniProt Q9ERK7: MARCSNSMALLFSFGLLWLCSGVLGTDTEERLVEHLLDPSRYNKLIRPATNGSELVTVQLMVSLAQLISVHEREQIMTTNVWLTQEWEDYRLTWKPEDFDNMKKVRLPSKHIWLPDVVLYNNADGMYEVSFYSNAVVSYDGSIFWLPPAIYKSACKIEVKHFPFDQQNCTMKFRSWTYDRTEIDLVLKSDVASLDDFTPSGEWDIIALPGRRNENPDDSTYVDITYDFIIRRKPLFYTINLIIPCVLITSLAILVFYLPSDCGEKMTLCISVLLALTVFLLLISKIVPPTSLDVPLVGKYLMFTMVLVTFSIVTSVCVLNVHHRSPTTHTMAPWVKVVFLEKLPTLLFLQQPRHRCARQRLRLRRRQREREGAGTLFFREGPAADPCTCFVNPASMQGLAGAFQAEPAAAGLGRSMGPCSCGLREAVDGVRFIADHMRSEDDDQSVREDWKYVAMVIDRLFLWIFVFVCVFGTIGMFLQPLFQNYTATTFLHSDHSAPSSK
UniProt O70174, residues 31-629: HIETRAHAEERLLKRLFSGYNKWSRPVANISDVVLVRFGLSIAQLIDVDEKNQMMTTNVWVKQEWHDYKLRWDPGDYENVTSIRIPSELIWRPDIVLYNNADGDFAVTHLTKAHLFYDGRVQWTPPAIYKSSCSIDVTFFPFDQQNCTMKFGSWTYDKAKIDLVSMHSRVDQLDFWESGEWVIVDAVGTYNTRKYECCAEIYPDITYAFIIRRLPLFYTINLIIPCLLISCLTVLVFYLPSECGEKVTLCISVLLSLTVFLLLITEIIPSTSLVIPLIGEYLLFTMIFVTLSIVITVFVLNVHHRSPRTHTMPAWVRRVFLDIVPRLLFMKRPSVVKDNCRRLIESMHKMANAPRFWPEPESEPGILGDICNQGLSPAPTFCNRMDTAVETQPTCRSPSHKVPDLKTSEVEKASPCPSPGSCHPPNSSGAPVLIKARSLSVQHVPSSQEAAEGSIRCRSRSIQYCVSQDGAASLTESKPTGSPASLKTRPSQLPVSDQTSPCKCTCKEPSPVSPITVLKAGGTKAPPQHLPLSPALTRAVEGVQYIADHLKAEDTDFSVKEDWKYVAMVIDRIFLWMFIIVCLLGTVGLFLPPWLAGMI

Target: nicotinic acetylcholine receptor subunit β2-cyan fluorescent protein (mouse) (UniProt Q9ERK7)
Assay: co-immunoprecipitation from stable HEK293 cell lines

binding: binds
Substance: nicotinic acetylcholine receptor subunit α4-yellow fluorescent protein (from UniProt O70174 31-629)
